Assay results as given in PMC6105679.
These are yes or no findings as the source states them, for the method shown. Binding seen in cells or lysates may run through a third protein. Some binding calls cover weakened binding; strength is not graded here.

Chains of the proteins cited; added tags and fusions are not shown.
UniProt Q5NCY0: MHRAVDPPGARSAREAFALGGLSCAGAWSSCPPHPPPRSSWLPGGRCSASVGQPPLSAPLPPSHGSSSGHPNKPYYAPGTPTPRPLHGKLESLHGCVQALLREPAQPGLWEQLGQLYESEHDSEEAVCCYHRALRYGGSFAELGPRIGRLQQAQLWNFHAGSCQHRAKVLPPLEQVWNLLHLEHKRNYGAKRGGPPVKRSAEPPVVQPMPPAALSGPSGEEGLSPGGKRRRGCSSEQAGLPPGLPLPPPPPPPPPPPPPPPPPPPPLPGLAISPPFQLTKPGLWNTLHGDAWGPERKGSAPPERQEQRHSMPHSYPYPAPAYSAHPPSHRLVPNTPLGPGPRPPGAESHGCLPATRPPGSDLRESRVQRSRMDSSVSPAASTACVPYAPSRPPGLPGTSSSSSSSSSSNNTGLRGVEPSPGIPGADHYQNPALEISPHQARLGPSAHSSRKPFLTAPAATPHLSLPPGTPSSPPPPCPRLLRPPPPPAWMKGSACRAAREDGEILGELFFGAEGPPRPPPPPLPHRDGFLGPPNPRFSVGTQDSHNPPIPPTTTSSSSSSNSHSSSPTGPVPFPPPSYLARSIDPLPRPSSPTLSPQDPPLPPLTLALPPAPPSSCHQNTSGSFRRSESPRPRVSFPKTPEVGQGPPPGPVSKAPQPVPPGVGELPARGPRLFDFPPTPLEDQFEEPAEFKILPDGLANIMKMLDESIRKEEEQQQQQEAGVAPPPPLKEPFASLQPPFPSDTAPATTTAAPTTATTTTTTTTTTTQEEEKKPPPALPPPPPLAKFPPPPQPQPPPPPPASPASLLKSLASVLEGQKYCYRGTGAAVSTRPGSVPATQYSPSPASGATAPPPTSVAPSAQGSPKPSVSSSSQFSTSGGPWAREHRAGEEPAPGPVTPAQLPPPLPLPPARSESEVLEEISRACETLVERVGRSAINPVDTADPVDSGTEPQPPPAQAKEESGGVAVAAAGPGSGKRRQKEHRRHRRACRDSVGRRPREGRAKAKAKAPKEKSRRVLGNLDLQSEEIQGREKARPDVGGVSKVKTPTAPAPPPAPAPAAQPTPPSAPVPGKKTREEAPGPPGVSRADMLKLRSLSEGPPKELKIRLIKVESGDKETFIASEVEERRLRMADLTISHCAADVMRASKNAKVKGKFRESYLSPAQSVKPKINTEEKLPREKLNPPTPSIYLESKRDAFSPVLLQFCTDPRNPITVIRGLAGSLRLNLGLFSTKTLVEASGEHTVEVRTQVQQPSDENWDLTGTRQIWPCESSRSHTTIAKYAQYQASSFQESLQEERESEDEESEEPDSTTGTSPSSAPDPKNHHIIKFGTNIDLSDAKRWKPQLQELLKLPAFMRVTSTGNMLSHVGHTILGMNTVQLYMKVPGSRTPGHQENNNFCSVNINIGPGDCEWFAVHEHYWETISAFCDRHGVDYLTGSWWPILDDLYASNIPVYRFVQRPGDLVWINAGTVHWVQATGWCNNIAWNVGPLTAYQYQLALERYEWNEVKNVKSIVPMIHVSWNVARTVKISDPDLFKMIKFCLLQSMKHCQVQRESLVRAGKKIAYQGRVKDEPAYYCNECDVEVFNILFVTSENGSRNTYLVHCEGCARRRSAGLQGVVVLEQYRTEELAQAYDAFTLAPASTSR
UniProt P53566: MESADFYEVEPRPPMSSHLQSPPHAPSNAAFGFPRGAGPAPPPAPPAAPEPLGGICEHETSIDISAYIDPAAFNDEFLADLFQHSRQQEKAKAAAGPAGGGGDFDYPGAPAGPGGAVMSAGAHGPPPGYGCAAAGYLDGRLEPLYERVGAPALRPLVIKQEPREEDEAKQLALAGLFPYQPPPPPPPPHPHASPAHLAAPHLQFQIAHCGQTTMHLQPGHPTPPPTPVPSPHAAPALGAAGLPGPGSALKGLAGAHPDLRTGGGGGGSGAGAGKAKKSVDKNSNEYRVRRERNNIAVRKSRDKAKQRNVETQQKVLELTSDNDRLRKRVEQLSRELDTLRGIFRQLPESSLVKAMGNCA
UniProt P28033: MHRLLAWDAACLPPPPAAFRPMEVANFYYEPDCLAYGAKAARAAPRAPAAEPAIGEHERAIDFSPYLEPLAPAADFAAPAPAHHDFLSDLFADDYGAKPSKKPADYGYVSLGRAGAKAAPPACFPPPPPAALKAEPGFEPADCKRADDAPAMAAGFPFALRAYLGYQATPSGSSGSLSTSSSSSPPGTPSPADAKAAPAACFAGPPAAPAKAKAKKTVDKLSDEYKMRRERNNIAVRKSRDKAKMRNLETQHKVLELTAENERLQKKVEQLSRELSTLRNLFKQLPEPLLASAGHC

Target: Jmjd3 (Jumonji domain-containing protein D3), mouse, endogenous in 32D cells (mouse (endogenous in 32D)) (UniProt Q5NCY0)
Assay: co-IP; 32D cell lysates immunoprecipitated with Jmjd3 antibody, blotted with Jmjd3, C/ebpα or C/ebpβ antibody; IgG as negative control; lysis buffer 50 mM Tris pH 7.5, 150 mM NaCl, 0.5% Triton X-100; Protein G Dynabeads

| Substance | binding |
| --- | --- |
| C/ebpα, mouse, endogenous in 32D cells (from UniProt P53566 1-359) | no binding |
| C/ebpβ, mouse, endogenous in 32D cells (from UniProt P28033 1-296) | binds |
